The text below walks through data of patent US7413909.

Protein sequences, listed by entry. Tags and fused reporters are not part of them.
UniProt P07477: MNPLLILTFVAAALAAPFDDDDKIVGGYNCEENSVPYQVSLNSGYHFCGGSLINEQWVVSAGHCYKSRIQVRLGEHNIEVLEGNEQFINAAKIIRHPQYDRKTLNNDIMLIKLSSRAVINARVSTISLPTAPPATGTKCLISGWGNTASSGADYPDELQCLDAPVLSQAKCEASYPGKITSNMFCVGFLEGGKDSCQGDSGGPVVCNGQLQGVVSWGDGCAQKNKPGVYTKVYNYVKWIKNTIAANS

Results are given in words; binding and its absence hold for the method and conditions named. Binding seen in cells or lysates may run through a third protein. Here binding means that the protein was enriched with, or labelled near, the bait; the list need not be complete.

Experiment [1] has as its target Trypsin from human duodenal aspirate (human) (UniProt P07477). As to the kind of experiment: inhibitor on AffiGel 10 (also on nylon and acrylic probe tips), capture from human duodenal aspirate, laser desorption TOF mass spectrometry.
Experiment [2] shares this target. Briefly: immobilized inhibitor, capture from human duodenal aspirate, laser desorption TOF mass spectrometry.

B1: Soybean trypsin inhibitor (Sigma) (protein, UniProt P01070 25-205, looked up)
chain: DFVLDNEGNPLENGGTYYILSDITAFGGIRAAPTGNERCPLTVVQSRNELDKGIGTIISSPYRIRFIAEGHPLSLKFDSFAVIMLCVGIPTEWSVVEDLPEGPAVKIGENKDAMDGWFRLERVSDDEFNNYKLVFCPQQAEDDKCGDIGISIDHDDGTRRLVVSKNKPLVVQFQKLDKESL
Consider B1, for which the binding result in experiment [1] and in experiment [2] was “binds” in each case.
